Laboratory results from paper doi:10.1101/2023.04.17.537228.
Like-named read-outs stand apart in the source and are kept apart here. These are yes or no findings as the source states them, for the method shown. In cells and extracts the contact can be indirect. Some binding calls cover weakened binding; strength is not graded here.

Chains of the proteins cited; added tags and fusions are not shown. Lines headed by an entry give the natural chain unless they say otherwise; changes in a name come on top.
UniProt Q7TQK4: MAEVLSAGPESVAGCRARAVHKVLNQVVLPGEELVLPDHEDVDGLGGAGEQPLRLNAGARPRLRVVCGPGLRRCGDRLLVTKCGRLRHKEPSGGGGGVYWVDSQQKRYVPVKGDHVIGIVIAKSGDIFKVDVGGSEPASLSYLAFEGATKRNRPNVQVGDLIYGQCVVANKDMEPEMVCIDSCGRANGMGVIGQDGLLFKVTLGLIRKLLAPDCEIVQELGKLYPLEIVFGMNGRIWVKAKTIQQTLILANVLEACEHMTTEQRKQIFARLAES
UniProt Q9JHI7: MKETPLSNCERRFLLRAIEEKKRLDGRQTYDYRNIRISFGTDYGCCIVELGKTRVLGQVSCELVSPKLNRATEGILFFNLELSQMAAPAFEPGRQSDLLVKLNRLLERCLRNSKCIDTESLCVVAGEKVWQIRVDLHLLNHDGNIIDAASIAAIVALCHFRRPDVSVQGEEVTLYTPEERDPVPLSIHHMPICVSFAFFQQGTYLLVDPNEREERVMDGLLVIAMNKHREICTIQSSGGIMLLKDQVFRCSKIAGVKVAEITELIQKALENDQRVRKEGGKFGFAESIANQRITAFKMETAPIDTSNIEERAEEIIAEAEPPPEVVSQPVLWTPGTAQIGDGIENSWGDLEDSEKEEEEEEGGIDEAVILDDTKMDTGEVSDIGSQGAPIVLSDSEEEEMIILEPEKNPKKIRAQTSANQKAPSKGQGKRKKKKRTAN

Columns and labels:
Assay in all cases: co-IP
[1] = target: EXOSC3 (mouse (endogenous in N2A)) (UniProt Q7TQK4)
myc-EXOSC3 = myc-EXOSC3 (UniProt Q7TQK4)
[2] = target: EXOSC3 (mouse (endogenous in N2A)) (UniProt Q7TQK4); remark: listed apart in the source

Measured: binding

EXOSC9 (from UniProt Q9JHI7 1-438)
binds: all assays above
